# From publication PMC4332150
# Protein sequences, listed by entry. Tags and fused reporters are not part of them.
# UniProt P16220: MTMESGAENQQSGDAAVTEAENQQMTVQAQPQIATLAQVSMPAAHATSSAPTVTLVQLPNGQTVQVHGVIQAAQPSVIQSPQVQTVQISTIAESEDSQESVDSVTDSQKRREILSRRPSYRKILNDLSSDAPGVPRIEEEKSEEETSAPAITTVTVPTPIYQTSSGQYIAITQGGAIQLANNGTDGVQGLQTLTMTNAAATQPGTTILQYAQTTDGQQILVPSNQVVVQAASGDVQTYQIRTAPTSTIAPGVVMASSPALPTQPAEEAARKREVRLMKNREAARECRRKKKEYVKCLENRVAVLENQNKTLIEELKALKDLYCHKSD
# UniProt P61244: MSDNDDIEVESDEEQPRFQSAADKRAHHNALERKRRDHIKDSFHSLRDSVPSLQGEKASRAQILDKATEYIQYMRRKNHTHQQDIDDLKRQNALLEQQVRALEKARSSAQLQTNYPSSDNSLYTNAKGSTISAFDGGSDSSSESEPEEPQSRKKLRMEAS
# UniProt Q9UKB1: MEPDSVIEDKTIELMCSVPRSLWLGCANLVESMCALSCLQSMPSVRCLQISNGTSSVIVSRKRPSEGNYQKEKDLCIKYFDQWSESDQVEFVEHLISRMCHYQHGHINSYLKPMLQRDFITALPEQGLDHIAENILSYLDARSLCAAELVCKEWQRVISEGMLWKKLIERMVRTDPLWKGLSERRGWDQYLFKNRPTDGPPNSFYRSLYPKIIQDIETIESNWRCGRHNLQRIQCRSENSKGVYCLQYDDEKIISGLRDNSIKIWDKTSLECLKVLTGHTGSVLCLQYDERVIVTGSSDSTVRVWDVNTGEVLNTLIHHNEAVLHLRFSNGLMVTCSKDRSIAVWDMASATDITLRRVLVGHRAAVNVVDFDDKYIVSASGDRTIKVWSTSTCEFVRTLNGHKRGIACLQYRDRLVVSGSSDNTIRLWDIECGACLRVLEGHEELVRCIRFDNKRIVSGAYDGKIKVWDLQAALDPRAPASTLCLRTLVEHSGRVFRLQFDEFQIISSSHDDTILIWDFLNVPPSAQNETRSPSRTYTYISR
# These are yes or no findings as the source states them, for the method shown. In cells and extracts the contact can be indirect. Here binding means that the protein was enriched with, or labelled near, the bait; the list need not be complete. For some assays here: No binding means not detected with the bait. For some assays here: Tags and fused reporters may be left off the sequences shown.
# T1: SFB-tagged NFATC1 (human) (UniProt O95644)
# T1 sequence: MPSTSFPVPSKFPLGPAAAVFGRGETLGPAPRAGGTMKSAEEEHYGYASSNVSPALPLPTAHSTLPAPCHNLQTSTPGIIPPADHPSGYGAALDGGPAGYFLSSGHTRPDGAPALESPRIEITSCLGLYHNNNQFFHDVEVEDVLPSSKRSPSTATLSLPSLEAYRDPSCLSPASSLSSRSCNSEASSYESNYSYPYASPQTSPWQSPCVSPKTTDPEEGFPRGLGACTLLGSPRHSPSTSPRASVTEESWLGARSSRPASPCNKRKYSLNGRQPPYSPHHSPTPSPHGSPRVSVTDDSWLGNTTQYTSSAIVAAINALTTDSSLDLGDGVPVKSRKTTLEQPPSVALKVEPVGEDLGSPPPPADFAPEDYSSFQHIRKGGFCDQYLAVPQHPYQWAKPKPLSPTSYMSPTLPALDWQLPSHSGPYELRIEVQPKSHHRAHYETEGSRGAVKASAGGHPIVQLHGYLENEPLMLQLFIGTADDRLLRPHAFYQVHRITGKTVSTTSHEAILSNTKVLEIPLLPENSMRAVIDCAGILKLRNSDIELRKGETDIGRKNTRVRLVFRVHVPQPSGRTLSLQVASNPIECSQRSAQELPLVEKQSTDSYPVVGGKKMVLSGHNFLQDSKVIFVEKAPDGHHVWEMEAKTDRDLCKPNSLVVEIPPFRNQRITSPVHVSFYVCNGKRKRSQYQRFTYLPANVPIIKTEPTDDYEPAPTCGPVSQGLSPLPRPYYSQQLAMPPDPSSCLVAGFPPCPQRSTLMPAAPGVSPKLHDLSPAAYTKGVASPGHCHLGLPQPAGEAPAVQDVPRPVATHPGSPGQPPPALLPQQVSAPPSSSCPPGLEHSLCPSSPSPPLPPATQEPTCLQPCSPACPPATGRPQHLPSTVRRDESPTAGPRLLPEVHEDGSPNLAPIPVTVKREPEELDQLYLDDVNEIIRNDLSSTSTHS
# Columns and labels:
# [1] = biological target: SFB-tagged CREB1 (human) (UniProt P16220); experiment: affinity purification with mass spectrometry; TAP (streptavidin beads, biotin elution, S-protein beads; NETN buffer) of C-terminally SFB-tagged bait from HEK293T; chromatin fraction (pellet after NETN lysis, digested with TurboNuclease); forward and reciprocal purifications; some baits also after drug treatment
# [2] = biological target: T1, SFB-tagged NFATC1 (human); experiment: as above
# [3] = biological target: SFB-tagged CREB1 (human) (UniProt P16220); experiment: affinity purification with mass spectrometry; TAP (streptavidin beads, biotin elution, S-protein beads; NETN buffer) of C-terminally SFB-tagged bait from HEK293T; soluble fraction (supernatant of the NETN lysate); forward and reciprocal purifications
# [4] = biological target: T1, SFB-tagged NFATC1 (human); experiment: as above
# [5] = biological target: SFB-tagged MAX (human) (UniProt P61244); experiment: affinity purification with mass spectrometry; same TAP/MS of SFB-tagged bait from HEK293T; the fraction in which the hit was found is not given
# [6] = biological target: βTRCP2/FBXW11 as bait of the reciprocal TAP/MS (UniProt Q9UKB1); experiment: as above
binder,measurement,setting,value
"ATF1 (endogenous) (protein, UniProt P18846 1-271) MEDSHKSTTSETAPQPGSAVQGAHISHIAQQVSSLSESEESQDSSDSIGSSQKAHGILARRPSYRKILKDLSSEDTRGRKGDGENSGVSAAVTSMSVPTPIYQTSSGQYIAIAPNGALQLASPGTDGVQGLQTLTMTNSGSTQQGTTILQYAQTSDGQQILVPSNQVVVQTASGDMQTYQIRTTPSATSLPQTVVMTSPVTLTSQTTKTDDPQLKREIRLMKNREAARECRRKKKEYVKCLENRVAVLENQNKTLIEELKTLKDLYSNKSV",binding,[1],binds
same,binding,[2],binds
same,binding,[3],binds
same,binding,[4],no binding (only in the soluble fraction)
"MORC2 (endogenous) (protein, UniProt Q9Y6X9 1-1032) MAFTNYSSLNRAQLTFEYLHTNSTTHEFLFGALAELVDNARDADATRIDIYAERREDLRGGFMLCFLDDGAGMDPSDAASVIQFGKSAKRTPESTQIGQYGNGLKSGSMRIGKDFILFTKKEDTMTCLFLSRTFHEEEGIDEVIVPLPTWNARTREPVTDNVEKFAIETELIYKYSPFRTEEEVMTQFMKIPGDSGTLVIIFNLKLMDNGEPELDIISNPRDIQMAETSPEGTKPERRSFRAYAAVLYIDPRMRIFIHGHKVQTKRLSCCLYKPRMYKYTSSRFKTRAEQEVKKAEHVARIAEEKAREAESKARTLEVRLGGDLTRDSRVMLRQVQNRAITLRREADVKKRIKEAKQRALKEPKELNFVFGVNIEHRDLDGMFIYNCSRLIKMYEKVGPQLEGGMACGGVVGVVDVPYLVLEPTHNKQDFADAKEYRHLLRAMGEHLAQYWKDIAIAQRGIIKFWDEFGYLSANWNQPPSSELRYKRRRAMEIPTTIQCDLCLKWRTLPFQLSSVEKDYPDTWVCSMNPDPEQDRCEASEQKQKVPLGTFRKDMKTQEEKQKQLTEKIRQQQEKLEALQKTTPIRSQADLKKLPLEVTTRPSTEEPVRRPQRPRSPPLPAVIRNAPSRPPSLPTPRPASQPRKAPVISSTPKLPALAAREEASTSRLLQPPEAPRKPANTLVKTASRPAPLVQQLSPSLLPNSKSPREVPSPKVIKTPVVKKTESPIKLSPATPSRKRSVAVSDEEEVEEEAERRKERCKRGRFVVKEEKKDSNELSDSAGEEDSADLKRAQKDKGLHVEVRVNREWYTGRVTAVEVGKHVVRWKVKFDYVPTDTTPRDRWVEKGSEDVRLMKPPSPEHQSLDTQQEGGEEEVGPVAQQAIAVAEPSTSECLRIEPDTTALSTNHETIDLLVQILRNCLRYFLPPSFPISKKQLSAMNSDELISFPLKEYFKQYEVGLQNLCNSYQSRADSRAKASEESLRTSERKLRETEEKLQKLRTNIVALLQKVQEDIDINTDDELDAYIEDLITKGD",binding,[5],binds
"USP47 (endogenous) (protein, UniProt Q96K76 1-1375) MVPGEENQLVPKEDVFWRCRQNIFDEMKKKFLQIENAAEEPRVLCIIQDTTNSKTVNERITLNLPASTPVRKLFEDVANKVGYINGTFDLVWGNGINTADMAPLDHTSDKSLLDANFEPGKKNFLHLTDKDGEQPQILLEDSSAGEDSVHDRFIGPLPREGSGGSTSDYVSQSYSYSSILNKSETGYVGLVNQAMTCYLNSLLQTLFMTPEFRNALYKWEFEESEEDPVTSIPYQLQRLFVLLQTSKKRAIETTDVTRSFGWDSSEAWQQHDVQELCRVMFDALEQKWKQTEQADLINELYQGKLKDYVRCLECGYEGWRIDTYLDIPLVIRPYGSSQAFASVEEALHAFIQPEILDGPNQYFCERCKKKCDARKGLRFLHFPYLLTLQLKRFDFDYTTMHRIKLNDRMTFPEELDMSTFIDVEDEKSPQTESCTDSGAENEGSCHSDQMSNDFSNDDGVDEGICLETNSGTEKISKSGLEKNSLIYELFSVMVHSGSAAGGHYYACIKSFSDEQWYSFNDQHVSRITQEDIKKTHGGSSGSRGYYSSAFASSTNAYMLIYRLKDPARNAKFLEVDEYPEHIKNLVQKERELEEQEKRQREIERNTCKIKLFCLHPTKQVMMENKLEVHKDKTLKEAVEMAYKMMDLEEVIPLDCCRLVKYDEFHDYLERSYEGEEDTPMGLLLGGVKSTYMFDLLLETRKPDQVFQSYKPGEVMVKVHVVDLKAESVAAPITVRAYLNQTVTEFKQLISKAIHLPAETMRIVLERCYNDLRLLSVSSKTLKAEGFFRSNKVFVESSETLDYQMAFADSHLWKLLDRHANTIRLFVLLPEQSPVSYSKRTAYQKAGGDSGNVDDDCERVKGPVGSLKSVEAILEESTEKLKSLSLQQQQDGDNGDSSKSTETSDFENIESPLNERDSSASVDNRELEQHIQTSDPENFQSEERSDSDVNNDRSTSSVDSDILSSSHSSDTLCNADNAQIPLANGLDSHSITSSRRTKANEGKKETWDTAEEDSGTDSEYDESGKSRGEMQYMYFKAEPYAADEGSGEGHKWLMVHVDKRITLAAFKQHLEPFVGVLSSHFKVFRVYASNQEFESVRLNETLSSFSDDNKITIRLGRALKKGEYRVKVYQLLVNEQEPCKFLLDAVFAKGMTVRQSKEELIPQLREQCGLELSIDRFRLRKKTWKNPGTVFLDYHIYEEDINISSNWEVFLEVLDGVEKMKSMSQLAVLSRRWKPSEMKLDPFQEVVLESSSVDELREKLSEISGIPLDDIEFAKGRGTFPCDISVLDIHQDLDWNPKVSTLNVWPLYICDDGAVIFYRDKTEELMELTDEQRNELMKKESSRLQKTGHRVTYSPRKEKALKIYLDGAPNKDLTQD",binding,[6],binds
"EEF2K (endogenous) (protein, UniProt O00418 1-725) MADEDLIFRLEGVDGGQSPRAGHDGDSDGDSDDEEGYFICPITDDPSSNQNVNSKVNKYYSNLTKSERYSSSGSPANSFHFKEAWKHAIQKAKHMPDPWAEFHLEDIATERATRHRYNAVTGEWLDDEVLIKMASQPFGRGAMRECFRTKKLSNFLHAQQWKGASNYVAKRYIEPVDRDVYFEDVRLQMEAKLWGEEYNRHKPPKQVDIMQMCIIELKDRPGKPLFHLEHYIEGKYIKYNSNSGFVRDDNIRLTPQAFSHFTFERSGHQLIVVDIQGVGDLYTDPQIHTETGTDFGDGNLGVRGMALFFYSHACNRICESMGLAPFDLSPRERDAVNQNTKLLQSAKTILRGTEEKCGSPQVRTLSGSRPPLLRPLSENSGDENMSDVTFDSLPSSPSSATPHSQKLDHLHWPVFSDLDNMASRDHDHLDNHRESENSGDSGYPSEKRGELDDPEPREHGHSYSNRKYESDEDSLGSSGRVCVEKWNLLNSSRLHLPRASAVALEVQRLNALDLEKKIGKSILGKVHLAMVRYHEGGRFCEKGEEWDQESAVFHLEHAANLGELEAIVGLGLMYSQLPHHILADVSLKETEENKTKGFDYLLKAAEAGDRQSMILVARAFDSGQNLSPDRCQDWLEALHWYNTALEMTDCDEGGEYDGMQDEPRYMMLAREAEMLFTGGYGLEKDPQRSGDLYTQAAEAAMEAMKGRLANQYYQKAEEAWAQMEE",binding,[6],binds
"CDC25A (endogenous) (protein, UniProt P30304 1-524) MELGPEPPHRRRLLFACSPPPASQPVVKALFGASAAGGLSPVTNLTVTMDQLQGLGSDYEQPLEVKNNSNLQRMGSSESTDSGFCLDSPGPLDSKENLENPMRRIHSLPQKLLGCSPALKRSHSDSLDHDIFQLIDPDENKENEAFEFKKPVRPVSRGCLHSHGLQEGKDLFTQRQNSAPARMLSSNERDSSEPGNFIPLFTPQSPVTATLSDEDDGFVDLLDGENLKNEEETPSCMASLWTAPLVMRTTNLDNRCKLFDSPSLCSSSTRSVLKRPERSQEESPPGSTKRRKSMSGASPKESTNPEKAHETLHQSLSLASSPKGTIENILDNDPRDLIGDFSKGYLFHTVAGKHQDLKYISPEIMASVLNGKFANLIKEFVIIDCRYPYEYEGGHIKGAVNLHMEEEVEDFLLKKPIVPTDGKRVIVVFHCEFSSERGPRMCRYVRERDRLGNEYPKLHYPELYVLKGGYKEFFMKCQSYCEPPSYRPMHHEDFKEDLKKFRTKSRTWAGEKSKREMYSRLKKL",binding,[6],binds
